Record: PubChem BioAssay AID1259425 (University of Nebraska Medical Center, 2018)

Assay: 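Find knockdowns that reproduce the gene expression pattern seen when KSR1 is lost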 (primary screen)
System: HCT116 human colon cancer cells
Knock-down reagent: siRNA pool against human genes, 50 nM siRNA
Measured: 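After 50 nM siRNA pool, branched-DNA assay measures six marker transcripts per well, minus blank, normalised to the geometric mean of two housekeeping transcripts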
Reading the numbers: BNIP3L mRNA: higher = more BNIP3L transcript after knockdown; NDRG1 mRNA: higher = more NDRG1 transcript after knockdown
In all, the deposit lists about 14,000 reagents; this is an unselected part. Further read-outs or replicates are left out here. Not given: the time to read-out.

Silencing of HTN1 [SID363993363] came out at: BNIP3L mRNA, set 1 = 0.0568; NDRG1 mRNA, set 1 = 0.0728.
Depletion of TOMM40L [SID364003816] gave: BNIP3L mRNA, set 1 = 0.387; NDRG1 mRNA, set 1 = 0.19.
For LPAR3 [SID363998096] the deposit lists BNIP3L mRNA, set 1 = 0.236; NDRG1 mRNA, set 1 = 0.0557.
With knock-down of THRB [SID363991792] the results were BNIP3L mRNA, set 1 = 0.0348; NDRG1 mRNA, set 1 = 0.0717.
For RFX2 [SID363991951], the values are BNIP3L mRNA, set 1 = 0.131; NDRG1 mRNA, set 1 = 0.0351.
Against CENPU [SID364002928], the entry reads BNIP3L mRNA, set 1 = 0.121; NDRG1 mRNA, set 1 = 0.229.
Knock-down of ARHGAP11A [SID363999103] gave: BNIP3L mRNA, set 1 = 0.252; NDRG1 mRNA, set 1 = 0.196.
Knock-down of NSD3 [SID364000522] resulted in: BNIP3L mRNA, set 1 = 0.142; NDRG1 mRNA, set 1 = 0.0776.
For PTN [SID363993981], the values are BNIP3L mRNA, set 1 = 0.146; NDRG1 mRNA, set 1 = 0.441.
Knock-down of NDUFA9 [SID363995941] came out at: BNIP3L mRNA, set 1 = 0.0909; NDRG1 mRNA, set 1 = 0.304.
With knock-down of KANSL3 [SID364000692], the screen gave BNIP3L mRNA, set 1 = 0.123; NDRG1 mRNA, set 1 = 0.294.
After knock-down of SMC4 [SID363996398], the screen gave BNIP3L mRNA, set 1 = 0.116; NDRG1 mRNA, set 1 = 0.236.
After knock-down of VCX3A [SID364000075] the results were BNIP3L mRNA, set 1 = 0.119; NDRG1 mRNA, set 1 = 0.15.
Depletion of NPPC [SID364002814] resulted in: BNIP3L mRNA, set 1 = 0.056; NDRG1 mRNA, set 1 = 0.147.
Silencing of NAIP [SID363995508] resulted in: BNIP3L mRNA, set 1 = 0.0779; NDRG1 mRNA, set 1 = 0.141.
GPR75 [SID363997562] scored BNIP3L mRNA, set 1 = 0.152; NDRG1 mRNA, set 1 = 0.181.
Depletion of TSHR [SID363991700] resulted in: BNIP3L mRNA, set 1 = 0.211; NDRG1 mRNA, set 1 = 0.131.
Silencing of AUTS2 [SID363999579] resulted in: BNIP3L mRNA, set 1 = 0.0819; NDRG1 mRNA, set 1 = 0.07.
Depletion of GH1 [SID363991838] resulted in: BNIP3L mRNA, set 1 = 0.116; NDRG1 mRNA, set 1 = 0.222.

Single entries from above.
AUTS2 [SID363999579], BNIP3L mRNA, set 1 = 0.0819
Entry of NPPC [SID364002814] under “BNIP3L mRNA, set 1”: 0.056
